From patent publication US20130052268A1, “COMPOSITIONS AND METHODS FOR TREATMENT OF PARKINSON'S DISEASE” (THE MCLEAN HOSPITAL CORPORATION, priority 2010, published 2013)

Molecular target: T1, Lmx1a (Mus musculus) (UniProt Q9JKU8)
T1 sequence (looked up, limits assumed): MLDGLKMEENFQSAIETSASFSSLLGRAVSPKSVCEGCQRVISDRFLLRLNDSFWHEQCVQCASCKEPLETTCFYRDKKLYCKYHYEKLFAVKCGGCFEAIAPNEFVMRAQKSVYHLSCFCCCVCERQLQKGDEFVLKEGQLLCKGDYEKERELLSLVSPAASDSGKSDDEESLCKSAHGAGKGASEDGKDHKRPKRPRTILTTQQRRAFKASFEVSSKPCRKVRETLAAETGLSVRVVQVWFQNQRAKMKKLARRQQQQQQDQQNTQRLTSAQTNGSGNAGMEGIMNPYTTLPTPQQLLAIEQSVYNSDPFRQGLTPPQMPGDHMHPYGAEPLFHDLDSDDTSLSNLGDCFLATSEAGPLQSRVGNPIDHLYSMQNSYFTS
Experiment: EMSA
Conditions: supershifted by anti-Lmx1a; 60 mM KCl, 1 ug poly(dI-dC); protein in a lysate after overexpression; label: 32P

| Sequence | binding result |
| --- | --- |
| GTGATAAGAAATAAATCTAATTACCATATCCTTTGAATA / CTATTCAAAGGATATGGTAATTAGATTTATTTCTTATCA [Nurr1 promoter Lmx1a binding site] | binds |
| CTTGCAAACACTTAATCCAAAAACGCCAA / GTTGGCGTTTTTGGATTAAGTGTTTGCAA [Pitx3 promoter Lmx1a binding site] | binds |
| CTATGAGTGCACGTCGTTAATCACAAACACACACA / GTGTGTGTGTTTGTGATTAACGACGTGCACTCATA [Wnt1 promoter Lmx1a binding site] | binds |

Where cells or extracts were used, other partners may take part. Protein sequences can lack the tags named with them.
